In US11090319B2, “Therapeutic uses of pharmaceutical compositions comprising cyclic boronic acid ester derivatives” (Melinta Subsidiary Corp., priority 2010, dated 2021):
At least one read-out could not be matched to a standard name with certainty.

Legend:
[1] = system: EC1007 KPC-3; assay type: cell-based, Escherichia coli
[2] = system: strains expressing class A ESBLs; assay type: cell-based
[3] = system: strains expressing class C and D enzymes; assay type: cell-based

SMILES	AZT MPC4 KPC-3 EC1007 [1]	AZT MPC4 CTX-M-14 KP1005 [2]	AZT MPC4 CTX-M-15 KP1009 [2]	AZT MPC4 SHV-5 ec308 [2]	AZT MPC4 SHV-12 KP1010 [2]	AZT MPC4 SHV-18 KP1012 [2]	AZT MPC4 TEM-10 EC1009 [2]	AZT MPC4 TEM-10 ec302 [2]	AZT MPC4 TEM-26 ec304 [2]	AZT MPC@4 CMY-6 EC1010 [3]	AZT MPC@4 ECL1002 [3]	AZT MPC@4 OXA-2, KPX1001 [3]	AZT MPC@4 OXA-10, qnrB4 KP1007 [3]	AZT MPC@4 PAM2035 [3]
O=C(O)C[C@@H]1CC[C@H](NC(=O)Cc2ccccn2)B(O)O1 [Compound 57, 2-((3R,6S)-2-hydroxy-3-(2-(pyridin-2-yl)acetamido)-1,2-oxaborinan-6-yl)acetic acid]	X (key: X: MPC@4 of less than 5 μg/mL; Y: MPC@4 of 5 μg/mL to 20 μg/mL; Z: MPC@4 of greater than 20 μg/mL)	Z (key: X: MPC@4 of less than 5 μg/mL; Y: MPC@4 of 5 μg/mL to 20 μg/mL; Z: MPC@4 of greater than 20 μg/mL)	Z (key: X: MPC@4 of less than 5 μg/mL; Y: MPC@4 of 5 μg/mL to 20 μg/mL; Z: MPC@4 of greater than 20 μg/mL)	Z (key: X: MPC@4 of less than 5 μg/mL; Y: MPC@4 of 5 μg/mL to 20 μg/mL; Z: MPC@4 of greater than 20 μg/mL)	Z (key: X: MPC@4 of less than 5 μg/mL; Y: MPC@4 of 5 μg/mL to 20 μg/mL; Z: MPC@4 of greater than 20 μg/mL)	Y (key: X: MPC@4 of less than 5 μg/mL; Y: MPC@4 of 5 μg/mL to 20 μg/mL; Z: MPC@4 of greater than 20 μg/mL)	Z (key: X: MPC@4 of less than 5 μg/mL; Y: MPC@4 of 5 μg/mL to 20 μg/mL; Z: MPC@4 of greater than 20 μg/mL)	Z (key: X: MPC@4 of less than 5 μg/mL; Y: MPC@4 of 5 μg/mL to 20 μg/mL; Z: MPC@4 of greater than 20 μg/mL)	Z (key: X: MPC@4 of less than 5 μg/mL; Y: MPC@4 of 5 μg/mL to 20 μg/mL; Z: MPC@4 of greater than 20 μg/mL)	Z (key: X: MPC@4 of less than 5 μg/mL; Y: MPC@4 of 5 μg/mL to 20 μg/mL; Z: MPC@4 of greater than 20 μg/mL)	Z (key: X: MPC@4 of less than 5 μg/mL; Y: MPC@4 of 5 μg/mL to 20 μg/mL; Z: MPC@4 of greater than 20 μg/mL)	Z (key: X: MPC@4 of less than 5 μg/mL; Y: MPC@4 of 5 μg/mL to 20 μg/mL; Z: MPC@4 of greater than 20 μg/mL)	Z (key: X: MPC@4 of less than 5 μg/mL; Y: MPC@4 of 5 μg/mL to 20 μg/mL; Z: MPC@4 of greater than 20 μg/mL)	Z (key: X: MPC@4 of less than 5 μg/mL; Y: MPC@4 of 5 μg/mL to 20 μg/mL; Z: MPC@4 of greater than 20 μg/mL)
O=C(O)C[C@@H]1CC[C@H](NC(=O)c2cn(C3CC3)c3cc(N4CCNCC4)c(F)cc3c2=O)B(O)O1 [Compound 58, 2-((3R,6S)-3-(1-cyclopropyl-6-fluoro-4-oxo-7-(piperazin-1-yl)-1,4-dihydroquinoline-3-carboxamido)-2-hydroxy-1,2-oxaborinan-6-yl)acetic acid]	Z (key: X: MPC@4 of less than 5 μg/mL; Y: MPC@4 of 5 μg/mL to 20 μg/mL; Z: MPC@4 of greater than 20 μg/mL)	Z (key: X: MPC@4 of less than 5 μg/mL; Y: MPC@4 of 5 μg/mL to 20 μg/mL; Z: MPC@4 of greater than 20 μg/mL)	Z (key: X: MPC@4 of less than 5 μg/mL; Y: MPC@4 of 5 μg/mL to 20 μg/mL; Z: MPC@4 of greater than 20 μg/mL)	Z (key: X: MPC@4 of less than 5 μg/mL; Y: MPC@4 of 5 μg/mL to 20 μg/mL; Z: MPC@4 of greater than 20 μg/mL)	Z (key: X: MPC@4 of less than 5 μg/mL; Y: MPC@4 of 5 μg/mL to 20 μg/mL; Z: MPC@4 of greater than 20 μg/mL)	Z (key: X: MPC@4 of less than 5 μg/mL; Y: MPC@4 of 5 μg/mL to 20 μg/mL; Z: MPC@4 of greater than 20 μg/mL)	Z (key: X: MPC@4 of less than 5 μg/mL; Y: MPC@4 of 5 μg/mL to 20 μg/mL; Z: MPC@4 of greater than 20 μg/mL)	Z (key: X: MPC@4 of less than 5 μg/mL; Y: MPC@4 of 5 μg/mL to 20 μg/mL; Z: MPC@4 of greater than 20 μg/mL)	Z (key: X: MPC@4 of less than 5 μg/mL; Y: MPC@4 of 5 μg/mL to 20 μg/mL; Z: MPC@4 of greater than 20 μg/mL)	Z (key: X: MPC@4 of less than 5 μg/mL; Y: MPC@4 of 5 μg/mL to 20 μg/mL; Z: MPC@4 of greater than 20 μg/mL)	Z (key: X: MPC@4 of less than 5 μg/mL; Y: MPC@4 of 5 μg/mL to 20 μg/mL; Z: MPC@4 of greater than 20 μg/mL)	Z (key: X: MPC@4 of less than 5 μg/mL; Y: MPC@4 of 5 μg/mL to 20 μg/mL; Z: MPC@4 of greater than 20 μg/mL)	Z (key: X: MPC@4 of less than 5 μg/mL; Y: MPC@4 of 5 μg/mL to 20 μg/mL; Z: MPC@4 of greater than 20 μg/mL)	Z (key: X: MPC@4 of less than 5 μg/mL; Y: MPC@4 of 5 μg/mL to 20 μg/mL; Z: MPC@4 of greater than 20 μg/mL)
C[C@]1(Cn2ccnn2)[C@H](C(=O)N[C@H]2CC[C@@H](CC(=O)O)OB2O)N2C(=O)C[C@H]2S1(=O)=O [Compound 59, 2-[(3R,6S)-2-hydroxy-3-[(2S,3 S,5R)-3-methyl-4,4,7-trioxo-3-(1H-1,2,3-triazol-1-ylmethyl)-4λ^6-thia-1-azabicyclo[3.2.0]heptane-2-amido]-1,2-oxaborinan-6-yl]acetic acid]	Z (key: X: MPC@4 of less than 5 μg/mL; Y: MPC@4 of 5 μg/mL to 20 μg/mL; Z: MPC@4 of greater than 20 μg/mL)	Z (key: X: MPC@4 of less than 5 μg/mL; Y: MPC@4 of 5 μg/mL to 20 μg/mL; Z: MPC@4 of greater than 20 μg/mL)	Z (key: X: MPC@4 of less than 5 μg/mL; Y: MPC@4 of 5 μg/mL to 20 μg/mL; Z: MPC@4 of greater than 20 μg/mL)	Z (key: X: MPC@4 of less than 5 μg/mL; Y: MPC@4 of 5 μg/mL to 20 μg/mL; Z: MPC@4 of greater than 20 μg/mL)	Z (key: X: MPC@4 of less than 5 μg/mL; Y: MPC@4 of 5 μg/mL to 20 μg/mL; Z: MPC@4 of greater than 20 μg/mL)	Z (key: X: MPC@4 of less than 5 μg/mL; Y: MPC@4 of 5 μg/mL to 20 μg/mL; Z: MPC@4 of greater than 20 μg/mL)	Z (key: X: MPC@4 of less than 5 μg/mL; Y: MPC@4 of 5 μg/mL to 20 μg/mL; Z: MPC@4 of greater than 20 μg/mL)	Z (key: X: MPC@4 of less than 5 μg/mL; Y: MPC@4 of 5 μg/mL to 20 μg/mL; Z: MPC@4 of greater than 20 μg/mL)	Z (key: X: MPC@4 of less than 5 μg/mL; Y: MPC@4 of 5 μg/mL to 20 μg/mL; Z: MPC@4 of greater than 20 μg/mL)	Z (key: X: MPC@4 of less than 5 μg/mL; Y: MPC@4 of 5 μg/mL to 20 μg/mL; Z: MPC@4 of greater than 20 μg/mL)	Z (key: X: MPC@4 of less than 5 μg/mL; Y: MPC@4 of 5 μg/mL to 20 μg/mL; Z: MPC@4 of greater than 20 μg/mL)	Z (key: X: MPC@4 of less than 5 μg/mL; Y: MPC@4 of 5 μg/mL to 20 μg/mL; Z: MPC@4 of greater than 20 μg/mL)	Z (key: X: MPC@4 of less than 5 μg/mL; Y: MPC@4 of 5 μg/mL to 20 μg/mL; Z: MPC@4 of greater than 20 μg/mL)	Z (key: X: MPC@4 of less than 5 μg/mL; Y: MPC@4 of 5 μg/mL to 20 μg/mL; Z: MPC@4 of greater than 20 μg/mL)
O=C(O)C[C@@H]1CC[C@H](NC(=O)CCc2nnc(-c3ccccc3)o2)B(O)O1 [Compound 60, 2-((3R,6S)-2-hydroxy-3-(3-(5-phenyl-1,3,4-oxadiazol-2-yl)propanamido)-1,2-oxaborinan-6-yl)acetic acid]	Y (key: X: MPC@4 of less than 5 μg/mL; Y: MPC@4 of 5 μg/mL to 20 μg/mL; Z: MPC@4 of greater than 20 μg/mL)	Z (key: X: MPC@4 of less than 5 μg/mL; Y: MPC@4 of 5 μg/mL to 20 μg/mL; Z: MPC@4 of greater than 20 μg/mL)	Z (key: X: MPC@4 of less than 5 μg/mL; Y: MPC@4 of 5 μg/mL to 20 μg/mL; Z: MPC@4 of greater than 20 μg/mL)	Z (key: X: MPC@4 of less than 5 μg/mL; Y: MPC@4 of 5 μg/mL to 20 μg/mL; Z: MPC@4 of greater than 20 μg/mL)	Z (key: X: MPC@4 of less than 5 μg/mL; Y: MPC@4 of 5 μg/mL to 20 μg/mL; Z: MPC@4 of greater than 20 μg/mL)	Z (key: X: MPC@4 of less than 5 μg/mL; Y: MPC@4 of 5 μg/mL to 20 μg/mL; Z: MPC@4 of greater than 20 μg/mL)	Z (key: X: MPC@4 of less than 5 μg/mL; Y: MPC@4 of 5 μg/mL to 20 μg/mL; Z: MPC@4 of greater than 20 μg/mL)	Z (key: X: MPC@4 of less than 5 μg/mL; Y: MPC@4 of 5 μg/mL to 20 μg/mL; Z: MPC@4 of greater than 20 μg/mL)	Z (key: X: MPC@4 of less than 5 μg/mL; Y: MPC@4 of 5 μg/mL to 20 μg/mL; Z: MPC@4 of greater than 20 μg/mL)	Z (key: X: MPC@4 of less than 5 μg/mL; Y: MPC@4 of 5 μg/mL to 20 μg/mL; Z: MPC@4 of greater than 20 μg/mL)	Z (key: X: MPC@4 of less than 5 μg/mL; Y: MPC@4 of 5 μg/mL to 20 μg/mL; Z: MPC@4 of greater than 20 μg/mL)	Z (key: X: MPC@4 of less than 5 μg/mL; Y: MPC@4 of 5 μg/mL to 20 μg/mL; Z: MPC@4 of greater than 20 μg/mL)	Z (key: X: MPC@4 of less than 5 μg/mL; Y: MPC@4 of 5 μg/mL to 20 μg/mL; Z: MPC@4 of greater than 20 μg/mL)	Z (key: X: MPC@4 of less than 5 μg/mL; Y: MPC@4 of 5 μg/mL to 20 μg/mL; Z: MPC@4 of greater than 20 μg/mL)
Nc1cc(CC(=O)N[C@H]2CC[C@@H](CC(=O)O)OB2O)ccn1 [Compound 61, 2-((3R,6S)-3-(2-(2-aminopyridin-4-yl)acetamido)-2-hydroxy-1,2-oxaborinan-6-yl)acetic acid]	X (key: X: MPC@4 of less than 5 μg/mL; Y: MPC@4 of 5 μg/mL to 20 μg/mL; Z: MPC@4 of greater than 20 μg/mL)	Z (key: X: MPC@4 of less than 5 μg/mL; Y: MPC@4 of 5 μg/mL to 20 μg/mL; Z: MPC@4 of greater than 20 μg/mL)	Z (key: X: MPC@4 of less than 5 μg/mL; Y: MPC@4 of 5 μg/mL to 20 μg/mL; Z: MPC@4 of greater than 20 μg/mL)	Z (key: X: MPC@4 of less than 5 μg/mL; Y: MPC@4 of 5 μg/mL to 20 μg/mL; Z: MPC@4 of greater than 20 μg/mL)	Y (key: X: MPC@4 of less than 5 μg/mL; Y: MPC@4 of 5 μg/mL to 20 μg/mL; Z: MPC@4 of greater than 20 μg/mL)	Y (key: X: MPC@4 of less than 5 μg/mL; Y: MPC@4 of 5 μg/mL to 20 μg/mL; Z: MPC@4 of greater than 20 μg/mL)	Z (key: X: MPC@4 of less than 5 μg/mL; Y: MPC@4 of 5 μg/mL to 20 μg/mL; Z: MPC@4 of greater than 20 μg/mL)	Z (key: X: MPC@4 of less than 5 μg/mL; Y: MPC@4 of 5 μg/mL to 20 μg/mL; Z: MPC@4 of greater than 20 μg/mL)	Z (key: X: MPC@4 of less than 5 μg/mL; Y: MPC@4 of 5 μg/mL to 20 μg/mL; Z: MPC@4 of greater than 20 μg/mL)	Y (key: X: MPC@4 of less than 5 μg/mL; Y: MPC@4 of 5 μg/mL to 20 μg/mL; Z: MPC@4 of greater than 20 μg/mL)	Y (key: X: MPC@4 of less than 5 μg/mL; Y: MPC@4 of 5 μg/mL to 20 μg/mL; Z: MPC@4 of greater than 20 μg/mL)	Y (key: X: MPC@4 of less than 5 μg/mL; Y: MPC@4 of 5 μg/mL to 20 μg/mL; Z: MPC@4 of greater than 20 μg/mL)	Y (key: X: MPC@4 of less than 5 μg/mL; Y: MPC@4 of 5 μg/mL to 20 μg/mL; Z: MPC@4 of greater than 20 μg/mL)	Y (key: X: MPC@4 of less than 5 μg/mL; Y: MPC@4 of 5 μg/mL to 20 μg/mL; Z: MPC@4 of greater than 20 μg/mL)
